According to publication PMC8194349:
Results are given in words; binding and its absence hold for the method and conditions named. In cells and extracts the contact can be indirect. Some entries that bind do so weakly or less than the wild type.

Molecular target: NF-kb-p65 (human (endogenous in T24/RT4 bladder cancer cells)), Q04206
Test: co-IP; cell lysate in IP buffer with 2 μg anti-NF-kb-p65 overnight at 4°C, Protein A+G Agarose 2 h at 4°C, blot for NF-kb-p65, IKBα and IKBβ; cells with overexpression or knockdown of LINC00467
Conditions: remark: other sources report otherwise

B1: IKBα, P25963 1-317 (protein)
chain: MFQAAERPQEWAMEGPRDGLKKERLLDDRHDSGLDSMKDEEYEQMVKELQEIRLEPQEVPRGSEPWKQQLTEDGDSFLHLAIIHEEKALTMEVIRQVKGDLAFLNFQNNLQQTPLHLAVITNQPEIAEALLGAGCDPELRDFRGNTPLHLACEQGCLASVGVLTQSCTTPHLHSILKATNYNGHTCLHLASIHGYLGIVELLVSLGADVNAQEPCNGRTALHLAVDLQNPDLVSLLLKCGADVNRVTYQGYSPYQLTWGRPSTRIQQQLGQLTLENLQMLPESEDEESYDTESEFTEFTEDELPYDDCVFGGQRLTL
- binding: binds
